Data on 1 molecule can be found in publication PMC12185749.

These are yes or no findings as the source states them, for the method shown. In cells and extracts the contact can be indirect. A yes stands for co-enrichment or nearness to the bait. Other partners may have been found. Where a sequence is shown, tags or fusion partners need not be part of it.

The target in the assay is T1, CLPTM1L-HA (UniProt Q96KA5).
T1 sequence: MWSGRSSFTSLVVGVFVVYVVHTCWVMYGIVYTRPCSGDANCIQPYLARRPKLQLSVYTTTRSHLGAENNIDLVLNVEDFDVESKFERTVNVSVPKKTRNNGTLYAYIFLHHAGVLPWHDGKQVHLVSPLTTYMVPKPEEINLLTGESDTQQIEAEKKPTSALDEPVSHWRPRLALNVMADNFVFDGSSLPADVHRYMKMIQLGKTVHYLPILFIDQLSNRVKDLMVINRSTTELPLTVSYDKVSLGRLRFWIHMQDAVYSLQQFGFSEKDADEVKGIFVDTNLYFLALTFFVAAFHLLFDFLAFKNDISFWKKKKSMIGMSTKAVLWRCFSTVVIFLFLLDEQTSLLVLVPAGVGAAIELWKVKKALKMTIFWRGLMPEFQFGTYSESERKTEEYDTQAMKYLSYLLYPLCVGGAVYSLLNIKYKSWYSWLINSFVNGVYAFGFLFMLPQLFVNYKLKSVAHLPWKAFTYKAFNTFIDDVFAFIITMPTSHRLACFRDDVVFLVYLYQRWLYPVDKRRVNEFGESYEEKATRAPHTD
As to the kind of experiment: affinity purification with mass spectrometry; proteins from S26 cells expressing CLPTM1L-HA or control vector incubated with Protein A/G magnetic beads conjugated with anti-HA antibody; SDS-PAGE, silver staining, the indicated band to mass spectrometry.

B1: ERLIN2 (protein, UniProt O94905 1-339)
chain: MAQLGAVVAVASSFFCASLFSAVHKIEEGHIGVYYRGGALLTSTSGPGFHLMLPFITSYKSVQTTLQTDEVKNVPCGTSGGVMIYFDRIEVVNFLVPNAVYDIVKNYTADYDKALIFNKIHHELNQFCSVHTLQEVYIELFDQIDENLKLALQQDLTSMAPGLVIQAVRVTKPNIPEAIRRNYELMESEKTKLLIAAQKQKVVEKEAETERKKALIEAEKVAQVAEITYGQKVMEKETEKKISEIEDAAFLAREKAKADAECYTAMKIAEANKLKLTPEYLQLMKYKAIASNSKIYFGKDIPNMFMDSAGSVSKQFEGLADKLSFGLEDEPLETATKEN
In the case of B1, the binding entry is “binds”.
